Data: the supplement of paper PMC10849652
This is one part of the list.

Protein sequences, listed by entry. Tags and fused reporters are not part of them. Lines headed by an entry give the natural chain unless they say otherwise; changes in a name come on top.
UniProt Q96TC7: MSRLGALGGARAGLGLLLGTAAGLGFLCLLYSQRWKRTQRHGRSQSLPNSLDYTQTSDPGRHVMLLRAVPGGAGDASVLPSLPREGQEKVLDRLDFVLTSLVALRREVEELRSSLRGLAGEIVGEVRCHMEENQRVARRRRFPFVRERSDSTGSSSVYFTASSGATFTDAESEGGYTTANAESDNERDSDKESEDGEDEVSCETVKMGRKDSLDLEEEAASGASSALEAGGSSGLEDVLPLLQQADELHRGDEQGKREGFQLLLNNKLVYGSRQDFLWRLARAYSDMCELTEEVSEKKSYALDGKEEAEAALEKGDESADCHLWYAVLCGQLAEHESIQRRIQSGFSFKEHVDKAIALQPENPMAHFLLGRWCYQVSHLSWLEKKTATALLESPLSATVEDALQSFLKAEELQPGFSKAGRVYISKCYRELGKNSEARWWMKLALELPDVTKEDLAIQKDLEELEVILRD
UniProt Q15293: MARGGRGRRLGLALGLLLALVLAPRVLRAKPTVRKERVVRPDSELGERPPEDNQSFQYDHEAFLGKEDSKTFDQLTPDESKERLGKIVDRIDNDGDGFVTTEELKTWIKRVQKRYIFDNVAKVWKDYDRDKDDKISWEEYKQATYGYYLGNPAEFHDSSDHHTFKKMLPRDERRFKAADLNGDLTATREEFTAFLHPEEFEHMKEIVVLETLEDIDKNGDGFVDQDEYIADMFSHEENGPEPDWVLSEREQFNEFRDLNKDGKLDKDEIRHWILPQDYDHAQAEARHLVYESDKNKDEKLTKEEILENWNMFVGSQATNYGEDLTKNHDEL
UniProt Q8TC12: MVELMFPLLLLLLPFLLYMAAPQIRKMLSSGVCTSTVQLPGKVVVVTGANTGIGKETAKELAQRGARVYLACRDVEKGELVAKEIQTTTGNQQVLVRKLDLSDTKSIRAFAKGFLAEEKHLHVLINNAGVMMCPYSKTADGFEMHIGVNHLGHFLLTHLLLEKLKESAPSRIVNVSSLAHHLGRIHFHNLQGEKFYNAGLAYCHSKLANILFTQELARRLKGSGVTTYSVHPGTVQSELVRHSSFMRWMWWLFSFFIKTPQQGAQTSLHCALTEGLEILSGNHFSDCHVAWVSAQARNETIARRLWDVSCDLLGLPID
UniProt Q96NA2: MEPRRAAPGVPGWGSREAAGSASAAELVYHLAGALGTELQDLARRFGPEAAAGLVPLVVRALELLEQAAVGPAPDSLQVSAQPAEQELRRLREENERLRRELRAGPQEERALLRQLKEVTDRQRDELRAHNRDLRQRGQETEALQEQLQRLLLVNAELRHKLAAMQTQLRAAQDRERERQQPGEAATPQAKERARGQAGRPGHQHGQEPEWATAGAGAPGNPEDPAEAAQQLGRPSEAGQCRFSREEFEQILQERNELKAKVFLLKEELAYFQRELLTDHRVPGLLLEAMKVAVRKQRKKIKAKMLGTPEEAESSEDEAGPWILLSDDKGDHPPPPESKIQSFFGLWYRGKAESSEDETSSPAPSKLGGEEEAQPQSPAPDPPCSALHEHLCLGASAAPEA
UniProt Q9HBH5: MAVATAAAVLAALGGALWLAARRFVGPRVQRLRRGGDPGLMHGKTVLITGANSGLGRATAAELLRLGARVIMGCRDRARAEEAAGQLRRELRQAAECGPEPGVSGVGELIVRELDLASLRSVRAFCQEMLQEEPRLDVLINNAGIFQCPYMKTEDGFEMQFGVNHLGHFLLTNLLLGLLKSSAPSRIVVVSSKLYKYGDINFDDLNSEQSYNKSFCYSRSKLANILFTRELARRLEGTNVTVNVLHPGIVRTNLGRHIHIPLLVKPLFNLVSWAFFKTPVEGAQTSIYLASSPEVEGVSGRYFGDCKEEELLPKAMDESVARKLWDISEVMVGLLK
UniProt O15541: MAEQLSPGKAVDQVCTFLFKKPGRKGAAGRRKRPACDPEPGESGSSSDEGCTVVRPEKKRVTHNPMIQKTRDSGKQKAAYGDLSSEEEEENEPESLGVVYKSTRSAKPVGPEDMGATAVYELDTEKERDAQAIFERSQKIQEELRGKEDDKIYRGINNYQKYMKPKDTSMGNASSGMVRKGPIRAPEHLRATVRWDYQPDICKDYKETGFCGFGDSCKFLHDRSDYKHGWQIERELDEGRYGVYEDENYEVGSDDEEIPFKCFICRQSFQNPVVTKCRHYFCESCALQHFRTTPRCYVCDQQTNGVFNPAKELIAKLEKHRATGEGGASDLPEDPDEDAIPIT
UniProt Q6NUM9: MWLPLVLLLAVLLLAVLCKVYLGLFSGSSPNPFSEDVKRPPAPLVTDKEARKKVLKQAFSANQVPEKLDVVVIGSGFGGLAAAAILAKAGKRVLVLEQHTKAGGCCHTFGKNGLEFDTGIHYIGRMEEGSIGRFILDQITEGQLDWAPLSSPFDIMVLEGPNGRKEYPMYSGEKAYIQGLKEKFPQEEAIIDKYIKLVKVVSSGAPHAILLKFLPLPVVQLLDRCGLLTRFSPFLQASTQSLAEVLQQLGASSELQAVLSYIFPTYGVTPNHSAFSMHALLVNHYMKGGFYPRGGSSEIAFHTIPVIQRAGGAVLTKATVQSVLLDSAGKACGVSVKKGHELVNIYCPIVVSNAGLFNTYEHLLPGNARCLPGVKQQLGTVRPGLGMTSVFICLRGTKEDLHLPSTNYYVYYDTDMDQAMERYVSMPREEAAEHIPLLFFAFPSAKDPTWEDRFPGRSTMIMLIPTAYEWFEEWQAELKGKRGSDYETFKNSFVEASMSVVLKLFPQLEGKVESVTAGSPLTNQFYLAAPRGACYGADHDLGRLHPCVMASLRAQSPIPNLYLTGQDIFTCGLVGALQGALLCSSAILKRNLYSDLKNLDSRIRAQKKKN
UniProt P35250, whole entry, looked up: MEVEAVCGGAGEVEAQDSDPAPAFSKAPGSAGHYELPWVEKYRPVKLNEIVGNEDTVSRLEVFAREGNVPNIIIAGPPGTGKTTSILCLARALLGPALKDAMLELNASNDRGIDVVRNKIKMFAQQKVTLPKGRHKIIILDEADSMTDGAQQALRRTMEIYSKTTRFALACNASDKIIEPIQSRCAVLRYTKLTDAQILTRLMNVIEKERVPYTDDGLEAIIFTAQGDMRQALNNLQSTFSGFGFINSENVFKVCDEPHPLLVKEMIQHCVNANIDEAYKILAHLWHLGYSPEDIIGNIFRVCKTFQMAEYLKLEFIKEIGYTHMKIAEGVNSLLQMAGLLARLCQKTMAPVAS
UniProt Q8IXI1, whole entry, looked up: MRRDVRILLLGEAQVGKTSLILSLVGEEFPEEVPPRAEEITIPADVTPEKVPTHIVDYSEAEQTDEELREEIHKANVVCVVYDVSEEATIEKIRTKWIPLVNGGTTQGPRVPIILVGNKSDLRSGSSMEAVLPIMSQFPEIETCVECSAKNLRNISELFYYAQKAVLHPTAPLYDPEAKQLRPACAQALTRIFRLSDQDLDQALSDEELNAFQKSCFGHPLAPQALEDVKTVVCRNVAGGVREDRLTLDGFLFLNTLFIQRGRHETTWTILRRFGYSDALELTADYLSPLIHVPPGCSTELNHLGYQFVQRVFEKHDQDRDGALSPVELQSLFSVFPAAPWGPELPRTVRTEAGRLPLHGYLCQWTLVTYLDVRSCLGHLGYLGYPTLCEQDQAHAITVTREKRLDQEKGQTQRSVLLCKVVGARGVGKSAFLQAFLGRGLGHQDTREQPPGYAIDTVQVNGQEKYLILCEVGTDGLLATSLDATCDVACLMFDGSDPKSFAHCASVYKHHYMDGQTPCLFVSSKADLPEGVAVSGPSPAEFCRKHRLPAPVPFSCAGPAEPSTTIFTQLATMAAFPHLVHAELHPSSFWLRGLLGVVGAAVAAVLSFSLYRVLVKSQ
UniProt Q8NBN7: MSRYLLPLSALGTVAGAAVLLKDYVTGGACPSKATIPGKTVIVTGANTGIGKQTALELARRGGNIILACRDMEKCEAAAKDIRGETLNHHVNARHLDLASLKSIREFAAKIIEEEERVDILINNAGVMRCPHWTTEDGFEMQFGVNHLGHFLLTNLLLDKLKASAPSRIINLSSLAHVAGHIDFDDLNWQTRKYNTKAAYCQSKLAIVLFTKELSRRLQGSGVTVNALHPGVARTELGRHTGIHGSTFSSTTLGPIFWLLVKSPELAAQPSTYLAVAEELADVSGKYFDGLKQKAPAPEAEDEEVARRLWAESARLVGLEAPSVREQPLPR
UniProt Q14498: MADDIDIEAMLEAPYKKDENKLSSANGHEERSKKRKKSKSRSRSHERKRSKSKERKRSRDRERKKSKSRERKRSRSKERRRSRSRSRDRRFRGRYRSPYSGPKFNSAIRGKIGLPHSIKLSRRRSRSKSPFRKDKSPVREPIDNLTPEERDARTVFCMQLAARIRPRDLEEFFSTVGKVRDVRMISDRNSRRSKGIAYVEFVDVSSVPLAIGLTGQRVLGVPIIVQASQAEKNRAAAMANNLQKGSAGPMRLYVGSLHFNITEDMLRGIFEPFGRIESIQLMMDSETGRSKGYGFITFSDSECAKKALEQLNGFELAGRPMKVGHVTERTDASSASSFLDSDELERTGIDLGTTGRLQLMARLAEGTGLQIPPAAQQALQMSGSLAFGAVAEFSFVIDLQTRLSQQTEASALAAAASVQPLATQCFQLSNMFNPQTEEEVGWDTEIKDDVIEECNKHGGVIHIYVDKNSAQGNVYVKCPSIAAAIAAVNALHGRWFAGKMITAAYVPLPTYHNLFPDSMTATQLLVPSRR
UniProt Q8IXI2: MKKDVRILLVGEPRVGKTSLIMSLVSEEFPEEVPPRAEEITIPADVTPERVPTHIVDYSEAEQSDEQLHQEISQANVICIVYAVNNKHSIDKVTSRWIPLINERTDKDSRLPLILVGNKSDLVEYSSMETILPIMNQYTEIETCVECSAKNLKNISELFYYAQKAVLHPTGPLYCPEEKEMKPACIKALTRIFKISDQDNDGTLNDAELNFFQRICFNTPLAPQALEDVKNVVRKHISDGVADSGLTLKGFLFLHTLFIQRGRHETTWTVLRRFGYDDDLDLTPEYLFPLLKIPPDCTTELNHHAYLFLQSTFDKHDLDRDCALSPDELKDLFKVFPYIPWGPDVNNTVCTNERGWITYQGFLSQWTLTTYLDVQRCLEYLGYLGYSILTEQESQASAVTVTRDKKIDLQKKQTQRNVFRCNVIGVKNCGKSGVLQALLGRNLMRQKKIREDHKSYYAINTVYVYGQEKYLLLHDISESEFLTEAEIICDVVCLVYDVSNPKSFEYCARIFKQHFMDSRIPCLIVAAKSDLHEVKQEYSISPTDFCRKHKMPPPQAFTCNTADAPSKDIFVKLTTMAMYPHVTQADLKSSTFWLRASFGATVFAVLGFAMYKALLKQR
UniProt P62745, whole entry, looked up: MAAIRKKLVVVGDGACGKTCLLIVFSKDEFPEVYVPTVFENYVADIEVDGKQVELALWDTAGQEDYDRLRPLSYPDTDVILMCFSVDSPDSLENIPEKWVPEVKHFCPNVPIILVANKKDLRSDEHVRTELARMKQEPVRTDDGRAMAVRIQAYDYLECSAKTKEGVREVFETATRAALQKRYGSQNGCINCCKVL
UniProt P35241, whole entry, looked up: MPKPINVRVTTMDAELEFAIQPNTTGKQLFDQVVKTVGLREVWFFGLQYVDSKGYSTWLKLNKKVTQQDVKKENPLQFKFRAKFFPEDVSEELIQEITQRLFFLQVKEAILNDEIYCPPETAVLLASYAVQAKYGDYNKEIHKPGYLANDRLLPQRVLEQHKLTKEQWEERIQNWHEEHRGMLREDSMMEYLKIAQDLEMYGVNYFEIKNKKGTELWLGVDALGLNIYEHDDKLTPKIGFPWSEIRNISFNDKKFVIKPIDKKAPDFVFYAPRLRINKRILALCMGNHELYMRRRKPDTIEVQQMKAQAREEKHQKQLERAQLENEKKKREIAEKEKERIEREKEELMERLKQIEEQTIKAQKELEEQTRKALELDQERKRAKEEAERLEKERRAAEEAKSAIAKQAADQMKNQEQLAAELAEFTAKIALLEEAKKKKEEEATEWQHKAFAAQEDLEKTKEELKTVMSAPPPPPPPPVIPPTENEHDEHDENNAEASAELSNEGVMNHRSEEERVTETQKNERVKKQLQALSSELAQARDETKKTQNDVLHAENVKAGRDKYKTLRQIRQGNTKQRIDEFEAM
UniProt P08134, whole entry, looked up: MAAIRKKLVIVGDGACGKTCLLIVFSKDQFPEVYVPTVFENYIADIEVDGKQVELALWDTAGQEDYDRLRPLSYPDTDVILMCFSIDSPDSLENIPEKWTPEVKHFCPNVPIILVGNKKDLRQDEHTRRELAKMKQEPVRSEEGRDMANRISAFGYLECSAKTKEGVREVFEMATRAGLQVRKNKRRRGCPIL

Legend:
Test in all cases: log2 fold change, soluble protein after heating vs DMSO (PISA); higher = thermal stabilisation; K562 cells, 10 uM, 30 min; active = over 0.2 and 3.5 SD of the protein, either way, in both replicates (recomputed)
[1] = compound: Cc1ccc(NC(=O)c2ccc(CN3CC[C@H](N(C)C)C3)c(C(F)(F)F)c2)cc1Nc1nccc(-c2cncnc2)n1 [bafetinib]
Method in brief: (§1)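 Quantification of soluble protein used TMTpro 16plex LC-MS/MS, with channel sums equalised. Samples were the supernatant after 21,000xg for 90 min of pooled aliquots from K562 cells (2×10^6 cells/mL) treated with 10 μM compound for 30 min, heated for 3 min over 48°C-58°C, and extracted in PBS with 0.5% NP-40 at 4°C. Values, from duplicates, describe thermal stability against control samples on a log2 fold-change scale.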

[2] = compound: Cc1cccc(CC(=O)N2CCc3c2ccc(-c2cn(C)c4ncnc(N)c24)c3F)n1
Method in brief: as §1

[3] = compound: Cc1cn(-c2cc(NC(=O)c3ccc(C)c(Nc4nccc(-c5cccnc5)n4)c3)cc(C(F)(F)F)c2)cn1 [nilotinib]
Method in brief: as §1

[4] = compound: Cc1nc(Nc2n[nH]c3c2CN(C(=O)N[C@H](CN(C)C)c2ccccc2)C3(C)C)c2sccc2n1
Method in brief: as §1

[5] = compound: Cc1nc(Nc2ncc(C(=O)Nc3c(C)cccc3Cl)s2)cc(N2CCN(CCO)CC2)n1 [dasatinib]
Method in brief: as §1

[6] = compound: Cc1ncc(-c2ccnc(Nc3ccc(S(C)(=O)=O)cc3)n2)n1C(C)C
Method in brief: as §1

[7] = compound: Cn1cc(-c2ccc3c(c2)CCN3C(=O)Cc2cccc(C(F)(F)F)c2)c2c(N)ncnc21
Method in brief: as §1

[8] = compound: Cn1cc(-c2ccc3nnc(C(F)(F)c4ccc5ncccc5c4)n3n2)cn1
Method in brief: as §1

[9] = compound: Cn1cncc1[C@@](N)(c1ccc(Cl)cc1)c1ccc2c(c1)c(-c1cccc(Cl)c1)cc(=O)n2C [tipifarnib]
Method in brief: as §1

[10] = compound: FC(F)(F)c1ccc(/C=C/c2nc(COc3ccc(CCCCn4ccnn4)cc3)co2)cc1 [mubritinib]
Method in brief: as §1

[11] = compound: NC(=O)Nc1cc(-c2cccc(F)c2)sc1C(=O)N[C@H]1CCCNC1
Method in brief: as §1

[12] = compound: NC(=O)c1cnc(N[C@@H]2CCCC[C@@H]2N)nc1Nc1cccc(-n2nccn2)c1
Method in brief: as §1

[13] = compound: NC1(c2ccc(-c3nc4ccn5c(=O)[nH]nc5c4cc3-c3ccccc3)cc2)CCC1
Method in brief: as §1

[14] = compound: NCC(=O)Nc1ccc(-n2nc(C(F)(F)F)cc2-c2ccc3c(ccc4ccccc43)c2)cc1
Method in brief: as §1

[15] = compound: Nc1ccccc1NC(=O)c1ccc(CNC(=O)OCc2cccnc2)cc1 [entinostat]
Method in brief: as §1

[16] = compound: O=C(CCCCCCC(=O)Nc1ccccc1)NO [vorinostat]
Method in brief: as §1

[17] = compound: O=C(CCCCCCNC(=O)c1cnc(N(c2ccccc2)c2ccccc2Cl)nc1)NO [citarinostat]
Method in brief: as §1

[18] = compound: O=C(O)c1ccc2c(c1)nc(Nc1cccc(Cl)c1)c1ccncc12 [silmitasertib]
Method in brief: as §1

[19] = compound: O=C1NC(=O)C(c2cnc3ccccn23)=C1c1cn2c3c(cc(F)cc13)CN(C(=O)N1CCCCC1)CC2
Method in brief: as §1

[20] = compound: c1cc(OCCN2CCCCC2)cc(-c2n[nH]c3ccc(-c4nnc[nH]4)cc23)c1
Method in brief: as §1

Row | Target | log2 fold change [1] | log2 fold change [2] | log2 fold change [3] | log2 fold change [4] | log2 fold change [5] | log2 fold change [6] | log2 fold change [7] | log2 fold change [8] | log2 fold change [9] | log2 fold change [10] | log2 fold change [11] | log2 fold change [12] | log2 fold change [13] | log2 fold change [14] | log2 fold change [15] | log2 fold change [16] | log2 fold change [17] | log2 fold change [18] | log2 fold change [19] | log2 fold change [20]
1 | RMDN3 (UniProt Q96TC7) | inactive: -0.013 | inactive: 0.026 | inactive: -0.011 | inactive: -0.03 | inactive: -0.048 | inactive: -0.044 | inactive: 0.02 | inactive: 0.018 | inactive: 0.018 | inactive: 0.015 | inactive: -0.032 | inactive: -0.048 | inactive: -0.076 | inactive: -0.031 | inactive: 0.004 | inactive: 0.008 | inactive: 0.033 | inactive: -0.007 | inactive: -0.065 | inactive: -0.027
2 | RCN1 (UniProt Q15293) | inactive: -0.075 | inactive: -0.08 | inactive: 0.007 | inactive: 0.006 | inactive: 0.032 | inactive: -0.046 | inactive: 0.002 | inactive: 0.02 | inactive: 0.02 | inactive: -0.019 | inactive: -0.012 | inactive: 0.012 | inactive: -0.045 | inactive: 0.025 | inactive: -0.008 | inactive: 0.062 | inactive: 0.017 | inactive: 0.031 | inactive: -0.019 | inactive: -0.03
3 | RDH11 (UniProt Q8TC12) | inactive: -0.119 | inactive: -0.048 | inactive: 0.099 | inactive: -0.112 | inactive: -0.079 | inactive: -0.03 | inactive: 0.015 | inactive: -0.022 | inactive: 0.059 | inactive: -0.033 | inactive: -0.118 | inactive: 0.061 | inactive: -0.049 | inactive: -0.165 | inactive: 0.055 | inactive: 0.05 | inactive: 0.092 | inactive: 0.061 | inactive: -0.087 | inactive: -0.041
4 | RILP (UniProt Q96NA2) | inactive: -0.088 | inactive: -0.006 | inactive: -0.019 | inactive: -0.058 | inactive: -0.084 | inactive: 0.019 | inactive: 0.07 | inactive: -0.005 | inactive: -0.044 | inactive: 0.076 | inactive: 0.013 | inactive: -0.01 | inactive: -0.036 | inactive: 0.006 | inactive: -0.024 | inactive: 0.062 | inactive: 0.044 | inactive: -0.077 | inactive: -0.034 | inactive: 0.104
5 | RDH14 (UniProt Q9HBH5) | inactive: 0.033 | inactive: -0.005 | inactive: 0.22 | inactive: 0.009 | inactive: -0.1 | inactive: -0.004 | inactive: 0.066 | inactive: -0.002 | inactive: 0.096 | inactive: -0.072 | inactive: -0.039 | inactive: -0.052 | inactive: 0.101 | inactive: -0.016 | inactive: -0.038 | inactive: -0.053 | inactive: -0.003 | inactive: 0.002 | inactive: 0.065 | inactive: 0.154
6 | RNF113A (UniProt O15541) | inactive: -0.041 | inactive: -0.049 | inactive: 0.032 | inactive: -0.014 | inactive: 0.022 | inactive: 0.018 | inactive: 0.045 | inactive: -0.048 | inactive: -0.009 | inactive: 0.005 | inactive: 0.014 | inactive: 0.046 | inactive: 0.032 | inactive: 0.017 | inactive: -0.007 | inactive: -0.038 | inactive: 0.001 | inactive: 0.035 | inactive: -0.08 | inactive: 0.023
7 | RETSAT (UniProt Q6NUM9) | inactive: -0.011 | inactive: -0.034 | inactive: 0.154 | inactive: -0.076 | inactive: -0.001 | active: 0.511 | inactive: 0.045 | inactive: -0.002 | inactive: -0.052 | inactive: 0.182 | inactive: -0.058 | inactive: -0.05 | inactive: -0.028 | inactive: -0.019 | inactive: 0.129 | inactive: -0.048 | inactive: 0.028 | inactive: -0.014 | inactive: 0.026 | inactive: -0.047
8 | RFC2 (UniProt P35250) | inactive: -0.05 | inactive: -0.023 | inactive: -0.073 | inactive: -0.035 | inactive: -0.077 | inactive: -0.017 | inactive: 0.03 | inactive: -0.004 | inactive: -0.026 | inactive: -0.056 | inactive: -0.026 | inactive: -0.006 | inactive: -0.053 | inactive: 0.014 | inactive: -0.001 | inactive: -0.006 | inactive: 0.015 | inactive: -0.008 | inactive: -0.025 | inactive: -0.025
9 | RHOT2 (UniProt Q8IXI1) | inactive: -0.018 | inactive: -0.029 | inactive: -0.073 | inactive: 0.074 | inactive: -0.098 | inactive: 0.023 | inactive: 0.021 | inactive: -0.029 | inactive: -0.076 | inactive: 0.007 | inactive: -0.08 | inactive: -0.035 | inactive: -0.047 | inactive: -0.052 | inactive: -0.02 | inactive: 0.022 | inactive: 0.057 | inactive: -0.001 | inactive: 0.019 | inactive: -0.03
10 | RDH13 (UniProt Q8NBN7) | inactive: -0.068 | inactive: -0.03 | inactive: 0.011 | inactive: -0.044 | inactive: -0.131 | inactive: 0.019 | inactive: 0.027 | inactive: 0.016 | inactive: 0.022 | inactive: -0.032 | inactive: -0.038 | inactive: -0.049 | inactive: -0.064 | inactive: -0.055 | inactive: -0.032 | inactive: 0.002 | inactive: 0.029 | inactive: -0.013 | inactive: -0.029 | inactive: -0.02
11 | RBM39 (UniProt Q14498) | inactive: 0.046 | inactive: 0.082 | inactive: -0.027 | active: -1.03 | inactive: -0.1 | inactive: 0.055 | inactive: -0.041 | inactive: -0.012 | inactive: -0.03 | inactive: -0.043 | inactive: -0.141 | inactive: -0.079 | inactive: 0.023 | inactive: -0.152 | inactive: 0.02 | inactive: 0.062 | inactive: 0.105 | inactive: -0.083 | inactive: 0.049 | inactive: -0.144
12 | RHOT1 isoform 3 (UniProt Q8IXI2) | inactive: -0.054 | inactive: 0.012 | inactive: -0.051 | inactive: -0.004 | inactive: -0.059 | inactive: -0.007 | inactive: 0.007 | inactive: 0.003 | inactive: 0.008 | inactive: 0.038 | inactive: 0 | inactive: -0.027 | inactive: -0.139 | inactive: -0.039 | inactive: 0.02 | inactive: -0.025 | inactive: 0.062 | inactive: 0.023 | inactive: -0.027 | inactive: -0.043
13 | RFX1 (UniProt P22670) | inactive: 0.023 | inactive: -0.008 | inactive: -0.027 | inactive: 0.012 | inactive: -0.02 | inactive: 0.004 | inactive: 0.054 | inactive: 0.023 | inactive: -0.013 | inactive: 0.029 | inactive: 0.071 | inactive: -0.016 | inactive: -0.102 | inactive: -0.049 | inactive: -0.01 | inactive: -0.063 | inactive: -0.056 | inactive: 0.015 | inactive: 0.016 | inactive: 0.002
14 | RHOB (UniProt P62745) | inactive: 0 | inactive: 0.077 | inactive: -0.032 | inactive: 0.026 | inactive: 0.24 | inactive: 0.019 | inactive: -0.017 | inactive: -0.081 | inactive: 0.017 | inactive: -0.025 | inactive: -0.089 | inactive: 0.159 | inactive: -0.065 | inactive: 0.138 | inactive: 0.016 | inactive: 0.023 | inactive: 0.146 | inactive: 0.009 | inactive: -0.291 | inactive: -0.039
15 | RDX (UniProt P35241) | inactive: 0.03 | inactive: -0.066 | inactive: 0.02 | inactive: -0.001 | inactive: 0.069 | inactive: 0.012 | inactive: 0.006 | inactive: -0.026 | inactive: -0.009 | inactive: 0.011 | inactive: -0.011 | inactive: -0.002 | inactive: 0.031 | inactive: 0.03 | inactive: -0.037 | inactive: -0.047 | inactive: -0.003 | inactive: -0.019 | inactive: 0.103 | inactive: -0.027
16 | RHOC (UniProt P08134) | inactive: -0.021 | inactive: -0.013 | inactive: 0.035 | inactive: 0.014 | inactive: 0.025 | inactive: -0.01 | inactive: 0.006 | inactive: -0.02 | inactive: -0.02 | inactive: 0.021 | inactive: -0.003 | inactive: -0.015 | inactive: -0.01 | inactive: 0.047 | inactive: -0.024 | inactive: -0.008 | inactive: 0.039 | inactive: -0.005 | inactive: -0.022 | inactive: -0.002

A few values from above.
In log2 fold change [9], RETSAT (UniProt Q6NUM9) is entered as inactive: -0.052
In log2 fold change [12], RFC2 (UniProt P35250) is entered as inactive: -0.006
